Reference: patent publication US20230157350A1, “DELIVERY SYSTEMS AND METHODS OF MAKING THE SAME” (British American Tobacco (Investments) Limited, priority 2020, published 2023)
Some of these results come from one statement about several compounds together. At least one compound was matched to its structure with a doubt left.

Experiment: Sniffing Analysis of uncombusted tobacco, Quantitative Descriptive Profiling (ISO 13299)
Conditions: prototype cigarette 1 mg, 0-5 category scale, critical intensity >1.0
Procedure: Further samples were analyzed using “Sniffing Analysis”, an applied sensory method for the assessment of characterizing flavors of standard products, by sniffing the tobacco itself, without combusting it, using a method as provided in the international standard ISO 13299. The data is set out in Tables 4 and 5, showing the results of Quantitative Descriptive Profiling (QDP), providing a score of between 0 and 5 for perception of the different tobacco typical and non-tobacco typical flavor notes
A critical intensity of a Mean >1.0 is highlighted in bold in Tables 4 and 5. On the 0-5 category scale, none of the prototype cigarette of “W53” or “WS23” show any critical intensity above 1.0 for the Non-Tobacco Typical Flavor Notes (see Table 5).

CNC(=O)C(C)(C(C)C)C(C)C [WS-23]
Intensity of the Non-Tobacco Typical Flavor Notes (all notes): ≤ 1.0
